The source of these data is patent US5849760A, “2-(arylalkenyl)azacycloalkane derivatives as ligands for sigma receptors” (Institut de Recherche Jouveinal, priority 1993, dated 1998).

The term IC50 denotes the point on the concentration scale where inhibition reaches its midpoint. Read a high IC50 as lower potency.

This assay concerns the target PCP receptors. Put plainly: In vitro binding to PCP receptors with [^3 H]TCP. Particulars: rat brain membrane. As to the method: The test of binding to phenylcyclidine receptors (PCP receptors), performed in the presence of a ligand specific for PCP receptors, [^3 H]TCP, was used to investigate any undesirable interaction of the compounds of the invention with these receptors.
The principle of this technique is to place in competition the affinity of the test substance and that of a radioactive ligand specific for the receptor being studied.
The technique consists in incubating a preparation of rat brain membrane loaded with the labeled ligand specific for the receptor under study in solutions of varying concentration of the test substance. After filtration, one measures the radioactivity of the solution, which represents the displacement of this labeled ligand by the test substance.

In turn, `O=C(CCCN1CCC(O)(c2ccc(Cl)cc2)CC1)c1ccc(F)cc1` [Haloperidol, reference compound] returned an IC50 of 1.27 nM.
